# In PubChem BioAssay AID1347423 (Functional Genomics Laboratory (NCATS/FGL), 2020):
# The whole screen tested about 52,000 sequences, of which about 210 (0.4%) were called active.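 Rule for the calls: active = gene whose silencing raises cell survival under the drug, median off-target-corrected z-score across its silencing RNAs 2 or more; inactive = the rest.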 This is one part of the list.
# Assay: Resistance to Poly (ADP-Ribose) Polymerase inhibitor: Gene Identification via Genome-wide siRNA Screen
# Conditions: mouse BRCA2 R2336H ES cells, olaparib, CellTiter-Glo viability; active compounds read high
# Summary of the method: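 Genome-wide siRNA screen (3 siRNAs/gene, 20 nM) in mouse ES cells carrying hypomorphic BRCA2 R2336H; olaparib 500 nM added 48 h post-transfection, CellTiter-Glo viability 72 h later. Normalized to plate-median negative control; MAD z-scores, gene median, seed-adjusted.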
row,Sequence,z-score
1,GGGAUAUGGAAAACUAUGATT against 1700025E21Rik,inactive: 0.406
2,CGAGUCUCCCUGGACAUUGTT against Rara,inactive: -1.56
3,CCAGCUUUUGUUUGUUAGATT against D030016E14Rik,inactive: -0.895
4,GCUUUUGCACUGGAGAAGUTT against Glra3,inactive: 3.07
5,CCUCAUGAUCAAAGUGCGGTT against Tmprss6,inactive: 2.01
6,CCCAAGAUCUAAGAGUAUUTT against Rin3,inactive: -0.875
7,GGUCUGCUUUGUGCUGAUGTT against Olfr983,inactive: -0.583
8,CGAAGUUUGACACCUAUAUTT against Tinf2,inactive: -0.431
9,GACAACUUUUCCCUGUCAUTT against Prm3,inactive: 0.665
10,GCAAACCUGACAAAAAUAGTT against BC027057,inactive: 0.107
11,CCACCACAGAAUGCAUUACTT against V1rd11,inactive: -2.72
12,GGCCAUCAAACACCAGGUGTT against Plxnb2,inactive: -1.43
13,GGUAAACGGAUGGAAUGGGTT against Gspt2,inactive: 0.354
14,CCGUCACUUUUAACCAUGUTT against Apeg1,inactive: 1.88
15,GGCAUAACAGAGAUGAUGATT against 4930506L13Rik,inactive: -1.05
16,CCAAUACCCUCAAGAUUCUTT against Itih5,inactive: 0.59
17,GGUGGAAAGGAACAUUGUGTT against Ppl,inactive: -1.03
18,GCGUGUGACCAGAUUCGUCTT against Slc1a2,inactive: -0.152
19,GCUAAGUUGCUUGUCUUUATT against Acox1,inactive: 0.674
20,GUACCAGAAGUGAGUUCAGTT against Leap2,inactive: -3.32
21,GGUCAUGCUCAUCUCCUCCTT against Nelf,inactive: -0.596
22,GGAUUUCAUUAAGCUGAAGTT against D930010J01Rik,inactive: 2.52
23,CCACUGUGCUCAAUUUGCATT against Slc9a2,inactive: 0.696

row,Sequence,z-score
1,GGAAUAAGUACCUCAUCUUTT against Fbxw5,inactive: -2.58
2,CCUAUUCAGUCGCUCAGAGTT against Pacs1,inactive: -0.123
3,CCUGCAUUUACUCAACUUGTT against Snrpe,inactive: -2.84
4,GGUGAACUGUAAUGGCUUCTT against Smyd2,inactive: -0.123
5,GCAGUGUUCGAAGAUAUGATT against Ehhadh,inactive: 2.28
6,GGAUGCACUGAUUUGGUUATT against Ptger2,inactive: 1.11
7,GGCUACGCUUUUAUUUCCCTT against Jak3,inactive: 1.94
8,GGUGGUAUUGAAAAGGAAATT against B930093C12Rik,inactive: 0.752
9,GGCGAAUUGAAGGAGACCATT against Tmod3,inactive: 1.73
10,GCGAAUGGAAAAUGAAGAUTT against BC031575,inactive: -1.39
11,GGCCUUGAUAAUGUUCGACTT against Coq6,inactive: 1.37
12,GGGUAACAGAUGAAGGGUCTT against Synpo2l,inactive: 3.5
13,CGACCAUACGAAUGCGGCATT against 6430526N21Rik,inactive: -0.647
14,GGAAUAGGAAAUUAGCACATT against Thnsl1,inactive: -0.738
15,GGCAAAUAAAUUCAGCAAGTT against D19Bwg1357e,inactive: 0.164
16,GGAAAUGAAUAUGAACCUUTT against 5330408M12Rik,inactive: -0.0836
17,GCUGAGUCUCAUCAAAGUCTT against Qtrtd1,inactive: -0.457
18,GACUUCUCCUGACAGGCUGTT against Olfr61,inactive: -0.941
19,GCCCGCGUUGCCUAAGUAUTT against Elavl4,inactive: -2.04
20,GGCCGUGAAACACUUUCGUTT against Lgi3,inactive: -0.552
21,CCUCGCUGUAUCUUAACAUTT against Dppa2,inactive: -0.883
22,CCCAGAAAUAAUAGGGUCGTT against BC037393,inactive: -0.478
23,GGAUGUGAUUGAUAUUGAATT against 2510004L20Rik,inactive: 1.48

# Part of the list above, tab-delimited.
row	Sequence	z-score
12	GGGUAACAGAUGAAGGGUCTT against Synpo2l	inactive: 3.5
13	CGACCAUACGAAUGCGGCATT against 6430526N21Rik	inactive: -0.647
14	GGAAUAGGAAAUUAGCACATT against Thnsl1	inactive: -0.738

# Exported with tabs: entries from further up
row	Sequence	z-score
20	GGCCGUGAAACACUUUCGUTT against Lgi3	inactive: -0.552
21	CCUCGCUGUAUCUUAACAUTT against Dppa2	inactive: -0.883

# Remaining list, next part.

row,Sequence,z-score
1,GGAUGUGGAUGAAUGCAGATT against Masp2,inactive: -0.454
2,GGUUUACCAUGCAUAUUAUTT against Txnrd2,inactive: -0.239
3,GCCAUAUGGGCAGAUGUUUTT against Sec24b,inactive: -0.0293
4,GGAGCUGAUCGAGAAGAUCTT against Xrcc3,inactive: 0.134
5,GCCAUCGAUGUACUGAGCUTT against Psme2,inactive: -0.265
6,CGUGGUUGUACAUAUUUGUTT against Trip10,inactive: -0.525
7,GGCCAGAGAAGAUUACUUUTT against Jub,inactive: 0.0963
8,CGAUGAUACAGACAGCAACTT against 5730509C05Rik,inactive: 0.498
9,GGAAGGAAGUGGGUUACUUTT against Olfr156,inactive: -0.626
10,CCAGGAUCACCAAAAUGGATT against Slit3,inactive: -1.62
11,GGGUGAUGUCACUGUCAUCTT against Gabrg2,inactive: -0.57
12,GGUGCUCAAAUCCUCUUGATT against Ctps,inactive: -2.76
13,GGUGUUUAAUAAUGUUGUCTT against Olfr976,inactive: 0.153
14,GGAGAUAUUCUGGUAUGACTT against Orc1l,inactive: 0.0825
15,GCCUGAGAAGAUAGACUGATT against Pigs,inactive: -1.13
16,GGACAAUCAACUAAAGCUCTT against Stab2,inactive: 2.42
17,GGAUGGUCGAAACAAUAACTT against Stk32b,inactive: 1.76
18,GGAGCUAUUGACACAAGUCTT against E230025N22,inactive: -3.38
19,GUUAUGGAGCAAUGUCUAUTT against Olfr1248,inactive: -0.524
20,GGAGAUGAAGAAGAUAUUGTT against Smoc2,inactive: -1.04
21,GCCUGUACAGACUACGCAGTT against 2310061N23Rik,inactive: 1.85
